For assay [1], the target named is TM4SF5 in SNU449 hepatocytes (human) (UniProt O14894). The experiment in a line: co-IP; SNU449 hepatocytes after glucose repletion; who was precipitated is not told.
The target is the same in assay [2]. The assay can be described thus: co-IP; SNU449 hepatocytes after FBS repletion; who was precipitated is not told.
Assay [3] has the same target. The assay can be described thus: co-IP; SNU449 hepatocytes; immunoblot of precipitates; amino acid or arginine repletion; who was precipitated is not told.
For assay [4], the target named is TM4SF5-STrEP (transmembrane 4 L six family member 5, Strep-tagged) (human) (UniProt O14894). The experiment in a line: co-IP; HEK293FT transfected 48 h; lysis in 40 mM HEPES pH 7.4, 150 mM NaCl, 1 mM EDTA, 0.5% Triton X-100; Strep-conjugated agarose beads, 4 h at 4°C; washes with 500 mM NaCl; immunoblot (Strep-tagged molecule held, HA-GLUT detected). In general terms: In western blotting, separated proteins are transferred to a membrane and probed.

Amino acid sequences for entries named in this document (tags omitted).
UniProt O14894: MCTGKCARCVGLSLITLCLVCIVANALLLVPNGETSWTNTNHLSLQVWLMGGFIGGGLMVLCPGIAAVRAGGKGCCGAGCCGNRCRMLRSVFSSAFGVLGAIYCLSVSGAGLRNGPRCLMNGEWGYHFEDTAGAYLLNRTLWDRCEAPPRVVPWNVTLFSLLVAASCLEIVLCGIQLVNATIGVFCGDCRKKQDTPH
UniProt P11166: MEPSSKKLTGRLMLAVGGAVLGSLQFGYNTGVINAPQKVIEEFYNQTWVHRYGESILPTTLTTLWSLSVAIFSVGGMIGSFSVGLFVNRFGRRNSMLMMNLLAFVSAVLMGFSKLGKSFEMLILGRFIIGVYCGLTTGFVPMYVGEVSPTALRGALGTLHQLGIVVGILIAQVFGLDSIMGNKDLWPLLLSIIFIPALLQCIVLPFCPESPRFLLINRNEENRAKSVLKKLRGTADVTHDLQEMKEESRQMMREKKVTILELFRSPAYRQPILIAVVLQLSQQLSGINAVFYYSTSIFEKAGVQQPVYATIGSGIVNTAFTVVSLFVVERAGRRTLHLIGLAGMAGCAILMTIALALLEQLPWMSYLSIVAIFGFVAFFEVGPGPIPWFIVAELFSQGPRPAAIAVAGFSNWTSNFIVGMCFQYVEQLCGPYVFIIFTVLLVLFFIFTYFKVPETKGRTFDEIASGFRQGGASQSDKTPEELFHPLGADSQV

The next assay deals with T1, CD151, Strep-tagged (UniProt P48509).
T1 sequence: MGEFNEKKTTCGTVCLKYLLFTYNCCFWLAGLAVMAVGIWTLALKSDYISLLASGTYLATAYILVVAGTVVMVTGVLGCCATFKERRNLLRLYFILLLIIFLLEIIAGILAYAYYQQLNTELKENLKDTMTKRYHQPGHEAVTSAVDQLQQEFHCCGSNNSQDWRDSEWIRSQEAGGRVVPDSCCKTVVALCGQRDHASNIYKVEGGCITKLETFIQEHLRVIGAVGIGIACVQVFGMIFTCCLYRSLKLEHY
The assay is described as above.

The target of the next assay is T2, TM4SF18, Strep-tagged (UniProt Q96CE8).
T2 sequence: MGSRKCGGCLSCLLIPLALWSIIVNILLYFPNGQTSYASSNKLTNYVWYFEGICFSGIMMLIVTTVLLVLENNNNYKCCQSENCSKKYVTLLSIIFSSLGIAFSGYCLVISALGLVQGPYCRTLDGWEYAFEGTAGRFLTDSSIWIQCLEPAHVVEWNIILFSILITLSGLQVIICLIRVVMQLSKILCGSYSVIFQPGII
The assay is described as above.

These are yes or no findings as the source states them, for the method shown. Binding seen in cells or lysates may run through a third protein. Some binding calls cover weakened binding; strength is not graded here. For some of these results: Where a sequence is shown, tags or fusion partners need not be part of it.

As for “GLUT1 in SNU449 hepatocytes (from UniProt P11166 1-492)”, the binding entry is on record as “no binding (condition: after glucose repletion)” in assay [1], “no binding (condition: after FBS repletion)” in assay [2] and “binds” in assay [3].

B1: HA-GLUT4 (protein, UniProt P14672 1-509)
chain: MPSGFQQIGSEDGEPPQQRVTGTLVLAVFSAVLGSLQFGYNIGVINAPQKVIEQSYNETWLGRQGPEGPSSIPPGTLTTLWALSVAIFSVGGMISSFLIGIISQWLGRKRAMLVNNVLAVLGGSLMGLANAAASYEMLILGRFLIGAYSGLTSGLVPMYVGEIAPTHLRGALGTLNQLAIVIGILIAQVLGLESLLGTASLWPLLLGLTVLPALLQLVLLPFCPESPRYLYIIQNLEGPARKSLKRLTGWADVSGVLAELKDEKRKLERERPLSLLQLLGSRTHRQPLIIAVVLQLSQQLSGINAVFYYSTSIFETAGVGQPAYATIGAGVVNTVFTLVSVLLVERAGRRTLHLLGLAGMCGCAILMTVALLLLERVPAMSYVSIVAIFGFVAFFEIGPGPIPWFIVAELFSQGPRPAAMAVAGFSNWTSNFIIGMGFQYVAEAMGPYVFLLFAVLLLGFFIFTFLRVPETRGRTFDQISAAFHRTPSLLEQEVKPSTELEYLGPDEND
Take B1: the binding result was “binds” in assay [4]; “no binding” in the assay with CD151, Strep-tagged; “no binding” in the assay with TM4SF18, Strep-tagged.

B2: HA-GLUT9 (protein, UniProt Q9NRM0 1-540)
chain: MARKQNRNSKELGLVPLTDDTSHAGPPGPGRALLECDHLRSGVPGGRRRKDWSCSLLVASLAGAFGSSFLYGYNLSVVNAPTPYIKAFYNESWERRHGRPIDPDTLTLLWSVTVSIFAIGGLVGTLIVKMIGKVLGRKHTLLANNGFAISAALLMACSLQAGAFEMLIVGRFIMGIDGGVALSVLPMYLSEISPKEIRGSLGQVTAIFICIGVFTGQLLGLPELLGKESTWPYLFGVIVVPAVVQLLSLPFLPDSPRYLLLEKHNEARAVKAFQTFLGKADVSQEVEEVLAESRVQRSIRLVSVLELLRAPYVRWQVVTVIVTMACYQLCGLNAIWFYTNSIFGKAGIPPAKIPYVTLSTGGIETLAAVFSGLVIEHLGRRPLLIGGFGLMGLFFGTLTITLTLQDHAPWVPYLSIVGILAIIASFCSGPGGIPFILTGEFFQQSQRPAAFIIAGTVNWLSNFAVGLLFPFIQKSLDTYCFLVFATICITGAIYLYFVLPETKNRTYAEISQAFSKRNKAYPPEEKIDSAVTDGKINGRP
As to B2, the binding result in assay [4] is “binds”.
